In publication doi:10.1101/355263:
These are yes or no findings as the source states them, for the method shown. In cells and extracts the contact can be indirect. Some results given as binding are weak or reduced against the parent protein; the word gives no strength. Tags and fused reporters may be left off the sequences shown. One block for each molecule: values may come before it.

Protein sequences, listed by entry. Tags and fused reporters are not part of them.
UniProt Q8IZH2: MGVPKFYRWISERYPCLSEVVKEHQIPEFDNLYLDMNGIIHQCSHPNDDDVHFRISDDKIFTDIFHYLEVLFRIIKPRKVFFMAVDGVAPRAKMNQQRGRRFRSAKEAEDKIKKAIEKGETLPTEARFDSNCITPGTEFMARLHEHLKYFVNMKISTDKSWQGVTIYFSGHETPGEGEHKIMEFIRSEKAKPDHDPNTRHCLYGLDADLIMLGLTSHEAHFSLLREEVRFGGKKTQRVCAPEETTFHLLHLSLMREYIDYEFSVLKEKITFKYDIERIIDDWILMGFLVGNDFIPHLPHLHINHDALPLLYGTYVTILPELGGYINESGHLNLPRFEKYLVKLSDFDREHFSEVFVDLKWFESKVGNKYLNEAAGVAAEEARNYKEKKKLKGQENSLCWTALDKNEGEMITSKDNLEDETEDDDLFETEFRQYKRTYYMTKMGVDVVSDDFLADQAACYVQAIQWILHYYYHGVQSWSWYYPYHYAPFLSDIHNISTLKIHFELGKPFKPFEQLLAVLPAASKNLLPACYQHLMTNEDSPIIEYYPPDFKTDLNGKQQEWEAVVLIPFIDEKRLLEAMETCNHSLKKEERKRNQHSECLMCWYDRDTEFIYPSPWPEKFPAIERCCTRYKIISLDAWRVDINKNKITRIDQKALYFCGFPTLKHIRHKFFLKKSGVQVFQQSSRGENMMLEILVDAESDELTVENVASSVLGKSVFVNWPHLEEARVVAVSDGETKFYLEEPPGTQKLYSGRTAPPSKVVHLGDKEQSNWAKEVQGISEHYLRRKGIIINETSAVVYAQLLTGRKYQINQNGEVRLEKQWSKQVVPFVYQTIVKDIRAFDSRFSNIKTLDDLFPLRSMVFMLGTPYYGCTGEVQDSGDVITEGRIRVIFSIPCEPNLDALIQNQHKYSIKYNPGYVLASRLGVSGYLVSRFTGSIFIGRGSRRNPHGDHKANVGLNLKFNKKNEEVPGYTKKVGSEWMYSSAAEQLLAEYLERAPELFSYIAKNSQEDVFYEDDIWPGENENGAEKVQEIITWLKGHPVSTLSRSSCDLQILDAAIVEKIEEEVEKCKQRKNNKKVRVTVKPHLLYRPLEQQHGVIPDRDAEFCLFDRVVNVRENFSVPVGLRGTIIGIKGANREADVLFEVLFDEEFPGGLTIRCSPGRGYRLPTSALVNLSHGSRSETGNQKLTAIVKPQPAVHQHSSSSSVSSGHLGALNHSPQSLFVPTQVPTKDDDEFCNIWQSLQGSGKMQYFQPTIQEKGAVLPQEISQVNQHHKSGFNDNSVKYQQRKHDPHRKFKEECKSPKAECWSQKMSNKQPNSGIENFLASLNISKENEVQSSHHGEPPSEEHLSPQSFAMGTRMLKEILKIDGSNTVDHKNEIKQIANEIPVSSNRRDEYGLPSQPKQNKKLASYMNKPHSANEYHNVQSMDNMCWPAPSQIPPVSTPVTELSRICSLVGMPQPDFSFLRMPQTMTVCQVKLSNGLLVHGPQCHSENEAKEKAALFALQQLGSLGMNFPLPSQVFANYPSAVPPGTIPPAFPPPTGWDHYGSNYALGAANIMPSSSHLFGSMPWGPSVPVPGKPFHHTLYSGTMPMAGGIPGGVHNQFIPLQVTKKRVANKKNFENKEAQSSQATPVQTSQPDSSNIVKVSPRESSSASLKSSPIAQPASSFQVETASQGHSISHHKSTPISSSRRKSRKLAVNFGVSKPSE

Columns and labels:
[1] = target: T1, Flag-tagged IFIT5 (interferon-induced tetratricopeptide repeat 5) (UniProt Q13325); assay: co-IP
T1 sequence: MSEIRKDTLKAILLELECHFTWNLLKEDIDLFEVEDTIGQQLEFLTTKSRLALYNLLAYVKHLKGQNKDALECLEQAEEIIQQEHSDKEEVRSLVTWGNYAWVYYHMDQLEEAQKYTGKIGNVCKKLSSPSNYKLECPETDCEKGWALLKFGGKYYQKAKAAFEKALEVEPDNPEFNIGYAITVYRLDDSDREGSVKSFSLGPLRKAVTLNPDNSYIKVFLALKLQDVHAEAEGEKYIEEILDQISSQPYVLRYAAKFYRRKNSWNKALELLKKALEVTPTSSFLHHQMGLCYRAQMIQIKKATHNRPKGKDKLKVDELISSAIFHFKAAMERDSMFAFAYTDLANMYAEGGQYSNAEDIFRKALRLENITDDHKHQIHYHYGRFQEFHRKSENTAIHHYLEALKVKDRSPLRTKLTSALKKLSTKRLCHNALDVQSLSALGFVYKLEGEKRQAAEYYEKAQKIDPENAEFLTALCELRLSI

[2] = target: XRN1 (human (endogenous in LAPC4)) (UniProt Q8IZH2); assay: co-IP

binding [1]: binds
Molecule: XRN1 (from UniProt Q8IZH2 1-1706) (enzyme)

binding [2]: binds
B1: Flag-tagged IFIT5 (interferon-induced tetratricopeptide repeat 5) (protein, UniProt Q13325 1-482)
chain: T1 sequence
